± gives the standard deviation of the averaged measurements. Only a part is listed here, and it is no random draw.
Compound: Nc1ncnc2c1ncn2[C@@H]1O[C@H](COP(=O)(O)OP(=O)(O)OP(=O)(O)O)[C@@H](O)[C@H]1O [adenosine triphosphate]
Assay: NP40-soluble protein abundance relative to vehicle (solubility fold change) (ratio); higher = more soluble protein in presence of ATP
Method in brief: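 Data come from three independent experiments in which Dounce-homogenised Jurkat crude lysate was treated at eight concentrations from 0.1 to 10 mM. Treatment ran 10 min at room temperature and then 3 min at 37 °C, after which 0.8% NP40 and benzonase were added for 60 min at 4 °C before ultracentrifugation. The supernatant underwent TMT labelling and LC-MS/MS, and vsn-normalised intensities were expressed as fold change against the detergent-processed vehicle in each replicate.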

The chains behind the UniProt entries cited, without tags or fusion partners. Where a name states a change or a piece, a line headed by the entry shows the natural chain unless it says otherwise.
UniProt Q8NBZ0, whole entry: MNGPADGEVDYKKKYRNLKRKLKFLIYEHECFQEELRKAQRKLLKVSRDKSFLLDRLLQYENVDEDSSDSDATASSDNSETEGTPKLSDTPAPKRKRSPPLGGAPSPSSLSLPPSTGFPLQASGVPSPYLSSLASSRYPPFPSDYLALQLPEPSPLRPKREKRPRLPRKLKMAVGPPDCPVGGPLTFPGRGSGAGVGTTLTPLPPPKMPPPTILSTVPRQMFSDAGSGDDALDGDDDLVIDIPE
UniProt Q9NPR2: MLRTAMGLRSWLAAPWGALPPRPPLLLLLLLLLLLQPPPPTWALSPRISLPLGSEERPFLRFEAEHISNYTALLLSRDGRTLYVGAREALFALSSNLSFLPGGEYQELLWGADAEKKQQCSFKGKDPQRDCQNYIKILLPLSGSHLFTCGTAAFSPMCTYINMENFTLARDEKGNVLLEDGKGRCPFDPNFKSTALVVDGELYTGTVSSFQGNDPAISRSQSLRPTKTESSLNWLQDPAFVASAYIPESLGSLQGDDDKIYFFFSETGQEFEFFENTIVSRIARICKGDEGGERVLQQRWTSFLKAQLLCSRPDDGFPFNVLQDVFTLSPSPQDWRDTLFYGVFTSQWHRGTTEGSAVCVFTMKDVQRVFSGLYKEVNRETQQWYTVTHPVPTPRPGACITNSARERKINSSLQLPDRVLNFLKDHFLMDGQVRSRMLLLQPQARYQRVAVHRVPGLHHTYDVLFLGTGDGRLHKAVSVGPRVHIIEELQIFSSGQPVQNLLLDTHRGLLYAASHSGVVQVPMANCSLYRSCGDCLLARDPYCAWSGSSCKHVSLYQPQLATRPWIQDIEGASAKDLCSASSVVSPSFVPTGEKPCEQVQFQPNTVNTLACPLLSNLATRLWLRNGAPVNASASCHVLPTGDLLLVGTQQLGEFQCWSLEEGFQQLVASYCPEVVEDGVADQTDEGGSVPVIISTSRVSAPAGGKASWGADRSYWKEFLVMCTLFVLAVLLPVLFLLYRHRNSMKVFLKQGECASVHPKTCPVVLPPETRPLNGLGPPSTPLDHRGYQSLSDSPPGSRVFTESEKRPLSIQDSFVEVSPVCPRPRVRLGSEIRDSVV
UniProt Q9BQD3: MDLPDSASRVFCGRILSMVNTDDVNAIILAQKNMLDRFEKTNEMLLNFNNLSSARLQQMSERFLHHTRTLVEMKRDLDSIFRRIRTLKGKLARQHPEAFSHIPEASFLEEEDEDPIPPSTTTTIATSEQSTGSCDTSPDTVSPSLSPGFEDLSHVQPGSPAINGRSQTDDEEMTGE
UniProt Q9UPN9: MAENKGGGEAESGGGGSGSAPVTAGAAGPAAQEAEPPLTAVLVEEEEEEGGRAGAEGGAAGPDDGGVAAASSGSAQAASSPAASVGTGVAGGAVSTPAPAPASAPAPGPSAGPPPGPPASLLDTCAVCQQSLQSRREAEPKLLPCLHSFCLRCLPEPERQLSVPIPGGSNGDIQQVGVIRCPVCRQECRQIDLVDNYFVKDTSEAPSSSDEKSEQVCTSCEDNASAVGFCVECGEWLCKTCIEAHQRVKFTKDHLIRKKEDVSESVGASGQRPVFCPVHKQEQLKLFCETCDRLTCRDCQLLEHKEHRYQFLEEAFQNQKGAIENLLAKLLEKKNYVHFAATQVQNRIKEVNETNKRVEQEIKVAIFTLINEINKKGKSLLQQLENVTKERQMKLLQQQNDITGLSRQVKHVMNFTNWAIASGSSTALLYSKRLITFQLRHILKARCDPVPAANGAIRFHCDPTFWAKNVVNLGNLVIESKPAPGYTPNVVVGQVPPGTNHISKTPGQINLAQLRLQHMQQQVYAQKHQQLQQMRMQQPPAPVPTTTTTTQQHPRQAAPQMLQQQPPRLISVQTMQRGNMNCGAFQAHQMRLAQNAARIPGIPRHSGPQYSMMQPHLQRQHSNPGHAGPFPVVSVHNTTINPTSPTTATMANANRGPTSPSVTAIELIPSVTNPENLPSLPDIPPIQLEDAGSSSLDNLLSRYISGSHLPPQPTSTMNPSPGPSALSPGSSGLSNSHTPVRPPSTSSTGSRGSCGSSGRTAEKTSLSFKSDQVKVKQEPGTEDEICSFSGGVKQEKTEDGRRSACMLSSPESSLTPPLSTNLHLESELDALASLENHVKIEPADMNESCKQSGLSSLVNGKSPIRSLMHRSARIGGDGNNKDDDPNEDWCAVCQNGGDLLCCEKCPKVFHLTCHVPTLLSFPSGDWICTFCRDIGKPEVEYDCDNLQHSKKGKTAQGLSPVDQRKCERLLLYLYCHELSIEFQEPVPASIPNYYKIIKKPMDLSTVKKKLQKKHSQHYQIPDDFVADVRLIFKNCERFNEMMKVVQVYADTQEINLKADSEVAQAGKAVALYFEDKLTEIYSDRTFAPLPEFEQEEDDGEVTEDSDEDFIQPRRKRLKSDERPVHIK
UniProt Q9NZJ7, whole entry: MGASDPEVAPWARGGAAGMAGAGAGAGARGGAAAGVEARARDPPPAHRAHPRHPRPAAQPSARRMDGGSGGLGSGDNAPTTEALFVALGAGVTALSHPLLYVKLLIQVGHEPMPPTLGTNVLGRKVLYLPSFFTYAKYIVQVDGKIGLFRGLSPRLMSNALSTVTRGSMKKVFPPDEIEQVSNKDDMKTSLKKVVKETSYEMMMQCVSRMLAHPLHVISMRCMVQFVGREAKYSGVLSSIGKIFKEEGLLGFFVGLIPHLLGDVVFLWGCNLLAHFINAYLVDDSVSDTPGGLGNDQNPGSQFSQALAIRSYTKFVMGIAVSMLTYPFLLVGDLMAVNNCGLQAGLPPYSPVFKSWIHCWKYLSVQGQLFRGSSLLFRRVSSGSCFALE
UniProt Q96EP5: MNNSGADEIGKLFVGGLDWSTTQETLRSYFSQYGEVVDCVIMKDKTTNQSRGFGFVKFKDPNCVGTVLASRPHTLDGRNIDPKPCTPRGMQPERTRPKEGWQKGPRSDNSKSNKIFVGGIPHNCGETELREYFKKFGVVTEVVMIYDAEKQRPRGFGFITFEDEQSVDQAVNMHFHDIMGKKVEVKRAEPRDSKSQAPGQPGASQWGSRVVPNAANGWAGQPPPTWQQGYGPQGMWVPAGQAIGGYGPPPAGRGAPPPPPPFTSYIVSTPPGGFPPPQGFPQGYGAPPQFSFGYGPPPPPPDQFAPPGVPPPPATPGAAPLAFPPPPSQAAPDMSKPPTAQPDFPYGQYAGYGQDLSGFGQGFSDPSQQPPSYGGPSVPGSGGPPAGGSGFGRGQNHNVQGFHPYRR
UniProt Q86Y39: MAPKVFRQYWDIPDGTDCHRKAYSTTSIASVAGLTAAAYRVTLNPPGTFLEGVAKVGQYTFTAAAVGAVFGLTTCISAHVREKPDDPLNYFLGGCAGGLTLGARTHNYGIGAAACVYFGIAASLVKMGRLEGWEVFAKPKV
UniProt P29017: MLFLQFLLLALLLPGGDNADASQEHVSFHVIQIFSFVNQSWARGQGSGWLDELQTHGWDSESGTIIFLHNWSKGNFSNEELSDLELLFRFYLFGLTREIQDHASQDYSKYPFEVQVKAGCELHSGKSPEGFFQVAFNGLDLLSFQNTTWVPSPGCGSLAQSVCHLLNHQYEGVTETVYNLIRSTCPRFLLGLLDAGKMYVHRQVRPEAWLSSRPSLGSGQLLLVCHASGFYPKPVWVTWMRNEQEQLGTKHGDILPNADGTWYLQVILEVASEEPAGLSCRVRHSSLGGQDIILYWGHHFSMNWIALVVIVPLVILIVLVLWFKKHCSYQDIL
UniProt Q7Z4W1: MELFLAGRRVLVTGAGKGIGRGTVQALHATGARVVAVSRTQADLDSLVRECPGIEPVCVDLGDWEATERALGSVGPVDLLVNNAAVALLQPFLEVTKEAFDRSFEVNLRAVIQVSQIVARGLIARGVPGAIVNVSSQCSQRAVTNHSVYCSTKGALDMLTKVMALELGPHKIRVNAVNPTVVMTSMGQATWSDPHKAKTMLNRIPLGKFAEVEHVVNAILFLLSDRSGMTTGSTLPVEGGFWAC
UniProt Q9NP61: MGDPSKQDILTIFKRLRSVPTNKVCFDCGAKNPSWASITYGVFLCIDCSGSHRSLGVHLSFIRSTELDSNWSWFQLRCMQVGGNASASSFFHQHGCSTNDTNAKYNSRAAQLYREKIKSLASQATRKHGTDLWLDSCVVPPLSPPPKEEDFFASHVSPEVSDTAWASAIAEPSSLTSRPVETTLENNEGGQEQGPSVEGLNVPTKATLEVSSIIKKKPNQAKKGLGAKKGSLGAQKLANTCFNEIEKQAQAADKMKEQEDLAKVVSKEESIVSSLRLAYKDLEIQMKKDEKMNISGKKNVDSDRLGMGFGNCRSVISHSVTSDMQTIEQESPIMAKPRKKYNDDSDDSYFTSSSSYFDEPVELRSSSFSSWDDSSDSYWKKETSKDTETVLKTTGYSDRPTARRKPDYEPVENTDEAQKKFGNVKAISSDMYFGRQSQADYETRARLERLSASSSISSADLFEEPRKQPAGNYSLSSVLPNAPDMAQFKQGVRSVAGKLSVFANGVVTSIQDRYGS
UniProt P52429: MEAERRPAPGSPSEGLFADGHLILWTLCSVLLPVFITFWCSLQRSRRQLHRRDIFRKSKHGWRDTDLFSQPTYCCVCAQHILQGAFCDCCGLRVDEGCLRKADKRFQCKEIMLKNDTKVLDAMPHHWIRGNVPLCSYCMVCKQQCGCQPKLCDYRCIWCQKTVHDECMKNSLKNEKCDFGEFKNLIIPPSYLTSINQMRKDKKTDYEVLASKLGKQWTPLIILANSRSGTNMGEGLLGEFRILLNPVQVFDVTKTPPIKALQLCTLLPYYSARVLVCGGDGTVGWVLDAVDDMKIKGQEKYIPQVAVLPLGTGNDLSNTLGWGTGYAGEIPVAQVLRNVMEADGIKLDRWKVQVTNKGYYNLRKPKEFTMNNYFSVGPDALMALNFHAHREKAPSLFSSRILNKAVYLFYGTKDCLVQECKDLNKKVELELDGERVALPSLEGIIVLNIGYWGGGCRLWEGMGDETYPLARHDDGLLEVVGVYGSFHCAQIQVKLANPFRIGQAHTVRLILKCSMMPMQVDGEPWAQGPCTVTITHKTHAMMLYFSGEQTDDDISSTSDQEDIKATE
UniProt Q8NEW0: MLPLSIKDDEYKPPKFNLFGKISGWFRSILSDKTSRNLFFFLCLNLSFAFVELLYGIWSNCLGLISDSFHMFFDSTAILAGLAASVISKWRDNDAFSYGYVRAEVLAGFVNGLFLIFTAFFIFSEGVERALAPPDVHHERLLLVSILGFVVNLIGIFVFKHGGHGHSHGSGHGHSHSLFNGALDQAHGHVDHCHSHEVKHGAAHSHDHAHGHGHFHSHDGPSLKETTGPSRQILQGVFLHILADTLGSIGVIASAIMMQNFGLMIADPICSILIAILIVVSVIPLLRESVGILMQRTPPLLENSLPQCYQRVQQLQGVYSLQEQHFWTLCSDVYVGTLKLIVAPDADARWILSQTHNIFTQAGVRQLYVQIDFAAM
UniProt O00273: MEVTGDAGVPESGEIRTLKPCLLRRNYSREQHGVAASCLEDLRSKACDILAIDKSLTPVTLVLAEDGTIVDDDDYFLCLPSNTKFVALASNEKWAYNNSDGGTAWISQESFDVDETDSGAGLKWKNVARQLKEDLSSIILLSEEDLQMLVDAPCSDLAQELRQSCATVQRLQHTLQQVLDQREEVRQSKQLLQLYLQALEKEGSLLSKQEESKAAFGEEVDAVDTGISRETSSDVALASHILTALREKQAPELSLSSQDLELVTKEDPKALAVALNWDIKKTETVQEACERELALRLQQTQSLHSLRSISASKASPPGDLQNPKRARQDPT

H3BMQ0 and related entries (UniProt P49815)
NP40-soluble protein abundance (concentration: 1mM): 1.01 ± 0.021 | NP40-soluble protein abundance (concentration: 2mM): 0.981 ± 0.029 | NP40-soluble protein abundance (concentration: 4mM): 0.959 ± 0.02 | NP40-soluble protein abundance (concentration: 6mM): 0.939 ± 0.066 | NP40-soluble protein abundance (concentration: 8mM): 0.955 ± 0.023 | NP40-soluble protein abundance (concentration: 10mM): 0.963 ± 0.018

H3BNM4 and related entries (UniProt Q8NBZ0)
NP40-soluble protein abundance (concentration: 1mM): 1.22 ± 0.14 | NP40-soluble protein abundance (concentration: 2mM): 1.3 ± 0.12 | NP40-soluble protein abundance (concentration: 4mM): 1.23 ± 0.13 | NP40-soluble protein abundance (concentration: 6mM): 1.26 ± 0.16 | NP40-soluble protein abundance (concentration: 8mM): 1.29 ± 0.056 | NP40-soluble protein abundance (concentration: 10mM): 1.06 ± 0.33

J3KNP4 and related entries (UniProt Q9NPR2)
NP40-soluble protein abundance (concentration: 1mM): 0.98 ± 0.072 | NP40-soluble protein abundance (concentration: 2mM): 0.969 ± 0.046 | NP40-soluble protein abundance (concentration: 4mM): 0.964 ± 0.074 | NP40-soluble protein abundance (concentration: 6mM): 0.957 ± 0.047 | NP40-soluble protein abundance (concentration: 8mM): 0.89 ± 0.051 | NP40-soluble protein abundance (concentration: 10mM): 0.944 ± 0.1

M0QY77 and related entries (UniProt Q9BQD3)
NP40-soluble protein abundance (concentration: 1mM): 0.872 ± 0.031 | NP40-soluble protein abundance (concentration: 2mM): 0.951 ± 0.057 | NP40-soluble protein abundance (concentration: 4mM): 0.909 ± 0.057 | NP40-soluble protein abundance (concentration: 6mM): 0.792 ± 0.029 | NP40-soluble protein abundance (concentration: 8mM): 0.843 ± 0.061 | NP40-soluble protein abundance (concentration: 10mM): 0.838 ± 0.093

H0Y612 and related entries (UniProt Q9UPN9)
NP40-soluble protein abundance (concentration: 1mM): 0.999 ± 0.026 | NP40-soluble protein abundance (concentration: 2mM): 1.01 ± 0.037 | NP40-soluble protein abundance (concentration: 4mM): 0.999 ± 0.031 | NP40-soluble protein abundance (concentration: 6mM): 1.03 ± 0.049 | NP40-soluble protein abundance (concentration: 8mM): 1.01 ± 0.022 | NP40-soluble protein abundance (concentration: 10mM): 1.03 ± 0.023

H0Y8C3 and related entries (UniProt Q9NZJ7)
NP40-soluble protein abundance (concentration: 1mM): 0.954 ± 0.058 | NP40-soluble protein abundance (concentration: 2mM): 0.911 ± 0.075 | NP40-soluble protein abundance (concentration: 4mM): 0.918 ± 0.031 | NP40-soluble protein abundance (concentration: 6mM): 0.901 ± 0.047 | NP40-soluble protein abundance (concentration: 8mM): 0.899 ± 0.081 | NP40-soluble protein abundance (concentration: 10mM): 0.954 ± 0.049

K7EQ55 and related entries (UniProt Q96EP5)
NP40-soluble protein abundance (concentration: 1mM): 0.972 ± 0.047 | NP40-soluble protein abundance (concentration: 2mM): 1.01 ± 0.023 | NP40-soluble protein abundance (concentration: 4mM): 0.981 ± 0.033 | NP40-soluble protein abundance (concentration: 6mM): 0.979 ± 0.033 | NP40-soluble protein abundance (concentration: 8mM): 0.956 ± 0.03 | NP40-soluble protein abundance (concentration: 10mM): 0.9699 ± 0.0081

K7EK78 and related entries (UniProt Q86Y39+K7EQ77+K7EP35+K7EMT4+K7EK78)
NP40-soluble protein abundance (concentration: 1mM): 1.22 ± 0.33 | NP40-soluble protein abundance (concentration: 2mM): 1.22 ± 0.17 | NP40-soluble protein abundance (concentration: 4mM): 1.14 ± 0.34 | NP40-soluble protein abundance (concentration: 6mM): 1.29 ± 0.26 | NP40-soluble protein abundance (concentration: 8mM): 1.14 ± 0.1 | NP40-soluble protein abundance (concentration: 10mM): 1.13 ± 0.25

H0Y6Y6 and related entries (UniProt P29017)
NP40-soluble protein abundance (concentration: 1mM): 0.891 ± 0.06 | NP40-soluble protein abundance (concentration: 2mM): 1.02 ± 0.11 | NP40-soluble protein abundance (concentration: 4mM): 1.02 ± 0.16 | NP40-soluble protein abundance (concentration: 6mM): 0.934 ± 0.018 | NP40-soluble protein abundance (concentration: 8mM): 0.92 ± 0.043 | NP40-soluble protein abundance (concentration: 10mM): 0.896 ± 0.0039

J3QR07 and related entries (UniProt Q96MU7)
NP40-soluble protein abundance (concentration: 1mM): 0.95 ± 0.07 | NP40-soluble protein abundance (concentration: 2mM): 0.91 ± 0.071 | NP40-soluble protein abundance (concentration: 4mM): 0.838 ± 0.064 | NP40-soluble protein abundance (concentration: 6mM): 0.796 ± 0.05 | NP40-soluble protein abundance (concentration: 8mM): 0.697 ± 0.015 | NP40-soluble protein abundance (concentration: 10mM): 0.712 ± 0.034

J3KS22 and related entries (UniProt Q7Z4W1)
NP40-soluble protein abundance (concentration: 1mM): 0.937 ± 0.065 | NP40-soluble protein abundance (concentration: 2mM): 0.947 ± 0.064 | NP40-soluble protein abundance (concentration: 4mM): 0.891 ± 0.04 | NP40-soluble protein abundance (concentration: 6mM): 0.89 ± 0.1 | NP40-soluble protein abundance (concentration: 8mM): 0.911 ± 0.035 | NP40-soluble protein abundance (concentration: 10mM): 0.926 ± 0.048

H0Y6A0 and related entries (UniProt Q9NP61)
NP40-soluble protein abundance (concentration: 1mM): 0.941 ± 0.025 | NP40-soluble protein abundance (concentration: 2mM): 0.9427 ± 0.0025 | NP40-soluble protein abundance (concentration: 4mM): 0.931 ± 0.016 | NP40-soluble protein abundance (concentration: 6mM): 0.965 ± 0.02 | NP40-soluble protein abundance (concentration: 8mM): 0.908 ± 0.028 | NP40-soluble protein abundance (concentration: 10mM): 0.922 ± 0.02

I3L112 and related entries (UniProt P52429)
NP40-soluble protein abundance (concentration: 1mM): 1.04 ± 0.075 | NP40-soluble protein abundance (concentration: 2mM): 1.052 ± 0.0071 | NP40-soluble protein abundance (concentration: 4mM): 1.15 ± 0.1 | NP40-soluble protein abundance (concentration: 6mM): 1.01 ± 0.036 | NP40-soluble protein abundance (concentration: 8mM): 1.16 ± 0.18 | NP40-soluble protein abundance (concentration: 10mM): 1.19 ± 0.17

H0Y362 and related entries (UniProt Q8NEW0)
NP40-soluble protein abundance (concentration: 1mM): 1.03 ± 0.066 | NP40-soluble protein abundance (concentration: 2mM): 1.02 ± 0.091 | NP40-soluble protein abundance (concentration: 4mM): 0.977 ± 0.066 | NP40-soluble protein abundance (concentration: 6mM): 0.912 ± 0.012 | NP40-soluble protein abundance (concentration: 8mM): 0.961 ± 0.03 | NP40-soluble protein abundance (concentration: 10mM): 0.983 ± 0.034

K7ERT1 and related entries (UniProt O00273)
NP40-soluble protein abundance (concentration: 1mM): 0.987 ± 0.053 | NP40-soluble protein abundance (concentration: 2mM): 0.98 ± 0.026 | NP40-soluble protein abundance (concentration: 4mM): 0.981 ± 0.014 | NP40-soluble protein abundance (concentration: 6mM): 1.02 ± 0.018 | NP40-soluble protein abundance (concentration: 8mM): 0.955 ± 0.016 | NP40-soluble protein abundance (concentration: 10mM): 0.951 ± 0.012
